{"source": "PubChem BioAssay AID504444", "about": "(National Center for Advancing Translational Sciences (NCATS), 2011)", "note": "In all, about 360,000 compounds went through this assay and about 7,500 (2.1%) were called active. The inconclusive results got no clear call from the source; some entries with a clear call stand among them for comparison. Calls come from the whole dose curve; as a rule, active = well fitted inhibition curve with a large enough effect; inconclusive = small, poorly fitted or top-dose-only effect, or effect the other way; inactive = flat fitted curve, though single readings scatter. Potencies beside an inconclusive call are fits to weak or partial responses and may not hold up. Potency is the fitted concentration of half-maximal effect."}
{"experiment": "Nrf2 qHTS screen for inhibitors; note: nearly all actives have a fitted effect of over 60% in size", "details": "A549 ARE-Fluc reporter, luciferase luminescence, 18-24 h; series mostly up to 46 µM", "in_short": "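In this cell-based qHTS, ARE-driven firefly luciferase in A549 cells reports Nrf2 activity; the luminescent signal after BugLite lysis is the measured value, with a prior CellTiter-Fluor read for cell health.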"}
{"smiles": "CCCCC(=O)NNC(=S)NC(=O)C(c1ccccc1)c1ccccc1", "Potency": "inconclusive: 23.1 µM [falling, single point]"}
{"smiles": "Cc1c(-c2ccccc2)n(-c2ccccc2O)c2nc3c(c(=O)n(C)c(=O)n3C)n12", "Potency": "inconclusive: 11.6 µM [falling, partial curve]"}
{"smiles": "CCc1nccn1CCC(=O)NC1CCCc2c1cnn2-c1ccc(F)cc1F", "note": "(centres undefined)", "Potency": "inconclusive: 23.1 µM [falling, partial curve]"}
{"smiles": "Cc1ccc(S(=O)(=O)N2CCN(c3ccc(N4CCOCC4)nn3)CC2)cc1[N+](=O)[O-]", "Potency": "inconclusive: 16.4 µM [falling, partial curve, poor fit]"}
{"smiles": "CCOC(=O)Cc1nnc(Nc2cccc(C)c2)c2ccccc12", "Potency": "inconclusive: 14.6 µM [falling, partial curve, poor fit]"}
{"smiles": "Cc1ccc(N/C(N)=N/c2nc(CSc3nnc(C)s3)cc(=O)[nH]2)c(C)c1", "Potency": "inconclusive: 6.51 µM [activator, full curve]"}
{"smiles": "COc1ccc(Cl)cc1NC(=O)CN(C)C(=O)c1cc(-c2cccs2)nn1-c1ccccc1", "Potency": "inconclusive: 29.1 µM [falling, single point]"}
{"smiles": "O=C(/C=C/c1cccc(F)c1)Nc1nccs1", "Potency": "inconclusive: 9.2 µM [activator, partial curve]"}
{"smiles": "CCc1ccc(-c2nn[nH]n2)cc1", "Potency": "inconclusive: 3.66 µM [activator, full curve, poor fit]"}
{"smiles": "O=C(CN1C(=O)CCC1=O)Nc1nc2c(F)cc(F)cc2s1", "Potency": "inconclusive: 3.26 µM [falling, partial curve, poor fit]"}
{"smiles": "Cc1cccc(S(=O)Cc2ccc(C(=O)NC3CCCCCC3)o2)c1", "note": "(centres undefined)", "Potency": "inactive"}
{"smiles": "COc1ccc(CCNC(=O)c2ccc(Cl)c(S(=O)(=O)N3CCCCCC3)c2)cc1", "Potency": "active: 8.2 µM"}
{"smiles": "CCCc1cc(C(=O)Nc2ccc(F)c(Cl)c2)no1", "Potency": "inconclusive: 29.1 µM [activator, single point]"}
{"smiles": "CC1CC(C)CN(C(=O)COC(=O)CCCN2C(=O)c3cccc4cccc(c34)C2=O)C1", "note": "(centres undefined)", "Potency": "inactive"}
{"smiles": "COc1ccc(C(=O)NNS(=O)(=O)c2ccc(OC)cc2)cc1", "Potency": "inconclusive: 6.51 µM [falling, full curve]"}
{"smiles": "O=C1NC[C@H](Cc2ccccc2)N(C[C@H]2CCCN2C[C@H](Cc2ccccc2)N2C[C@H](Cc3ccccc3)N(CC3CCCCC3)C(=O)C2=O)C1=O", "Potency": "inconclusive: 29.1 µM [falling, single point]"}
{"smiles": "Cc1ccc(Nc2ncnc3c2nc2n3CCCC2)c(Br)c1", "Potency": "inconclusive: 0.082 µM [activator, full curve, poor fit]"}
{"smiles": "COc1ccccc1CNC(=O)c1cnc2sc(N3CCOCC3)nn2c1=O", "Potency": "inconclusive: 29.1 µM [activator, single point]"}
{"smiles": "O=C(Nc1ccccc1N1CCOCC1)c1cc(-c2ccco2)nc2ccccc12", "Potency": "active: 18.4 µM"}
{"smiles": "COc1ccc(N2CCN(C(=O)Cn3nc(Cc4cccnc4)c4ccccc4c3=O)CC2)cc1", "Potency": "inactive"}
{"smiles": "OC1(c2ccc(Cl)cc2)CN(c2ccccc2)C2=[N+]1CCS2", "note": "(centres undefined)", "Potency": "inconclusive: 25.9 µM [falling, partial curve, poor fit]"}
{"smiles": "Cc1c(P(=S)(c2ccccc2)c2ccccc2)c2ccccc2n1C(=O)NCc1ccccc1", "Potency": "inactive"}
{"smiles": "COc1ccccc1N1CCN(C(=O)c2sc3nc(C)nc(N4CCN(c5ccccn5)CC4)c3c2C)CC1", "Potency": "active: 14.6 µM"}
{"smiles": "Cc1ccc(F)cc1NC(=O)c1cnccn1", "Potency": "inconclusive: 10.3 µM [falling, partial curve, poor fit]"}
{"smiles": "CCOC(=O)c1c(NC(=O)C2=COCCO2)sc2c1CCN(C(=O)OC)C2", "Potency": "inconclusive: 14.6 µM [falling, partial curve]"}
{"smiles": "CNc1ncc(C(=O)c2ccc(Br)cc2)s1", "Potency": "inconclusive: 5.8 µM [activator, partial curve]"}
{"smiles": "Cc1ccc(-n2c(=O)[nH]c3ncccc3c2=O)cc1", "Potency": "inactive"}
{"smiles": "CN1/C(=C/c2cc[n+](C)c3ccccc23)C=Cc2ccccc21", "Potency": "active: 1.16 µM"}
{"smiles": "COC(=O)c1cc(S(=O)(=O)N2CCN(c3ccc(F)cc3)CC2)cn1C", "Potency": "inconclusive: 32.6 µM [falling, single point]"}
{"smiles": "O=S(=O)(c1cccc(C(F)(F)F)c1)N1CCN(c2nc(-c3cccs3)nc3ccccc23)CC1", "Potency": "inactive"}
{"smiles": "COc1ccccc1NC(=O)c1cc2c(CO)cnc(C)c2oc1=Nc1ccc(OC)c(OC)c1", "Potency": "inconclusive: 0.651 µM [falling, full curve]"}
{"smiles": "COC(=O)c1ccc(C(=O)OCCCc2nc3ccc(N)cc3[nH]2)cc1", "Potency": "inactive"}
{"smiles": "CCOc1cccc(-c2nn(-c3ccccc3)cc2/C=C(/C#N)C(=O)NCCCn2ccnc2)c1", "Potency": "inconclusive: 29.1 µM [falling, single point]"}
{"smiles": "COc1ccc(-c2cc(-c3ccccc3)nc(N)n2)c(O)c1", "Potency": "inactive"}
{"smiles": "Cc1ccc(N2CC(C(=O)Nc3ccc(C)c(S(=O)(=O)N(C)C)c3)CC2=O)cc1", "note": "(centres undefined)", "Potency": "inconclusive: 20.6 µM [falling, single point]"}
{"smiles": "Cn1c(SCC(=O)Nc2ccc(NC(=O)c3cccc(F)c3)cc2)nnc1-c1ccncc1", "Potency": "inactive"}
{"smiles": "O=C(c1ccc2c(c1)N(Cc1ccccc1)C(=O)c1ccccc1S2=O)N1CCC(Cc2ccccc2)CC1", "note": "(centres undefined)", "Potency": "inconclusive: 29.1 µM [falling, single point]"}
{"smiles": "O=c1[nH]nc(CNc2ccc(OC(F)(F)F)cc2)c2ccccc12", "Potency": "inconclusive: 20.6 µM [falling, single point]"}
{"smiles": "Cc1ccc2c(c1)c(=O)c(S(=O)(=O)c1ccc(C)c(C)c1)cn2CC(=O)Nc1ccccc1", "Potency": "inactive"}
{"smiles": "COc1ccc(C(=O)n2cnc(N)n2)cc1", "Potency": "inconclusive: 10.3 µM [falling, partial curve]"}
{"smiles": "CCOc1ccc(OCCNC(=O)C(NC(=O)c2c(F)cccc2F)C(C)C)cc1", "note": "(centres undefined)", "Potency": "inactive"}
{"smiles": "O=C(Oc1ccnc2cc(Cl)ccc12)N1CCCCCC1", "Potency": "inconclusive: 29.1 µM [falling, single point]"}
{"smiles": "O=C(c1cc(COc2ccc(F)cc2F)on1)N1CCOCC1", "Potency": "inconclusive: 1.84 µM [activator, partial curve, poor fit]"}
{"smiles": "O=S(=O)(c1ccc(SCCOc2cccc(Br)c2)nc1)N1CCCC1", "Potency": "inconclusive: 29.1 µM [falling, single point]"}
{"smiles": "CCOC(=O)C1=CN(CC)S(=O)(=O)NC1CCc1ccccc1", "note": "(centres undefined)", "Potency": "inconclusive: 16.4 µM [falling, single point]"}
{"smiles": "COc1ccccc1Nc1ncc(C(=O)Nc2ccc(OC)c(OC)c2)c2ccccc12", "Potency": "inactive"}
{"smiles": "O=C1c2ccccc2C(=Nc2ccccc2)C1c1cccc(Br)c1", "note": "(centres undefined)", "Potency": "inconclusive: 29.1 µM [falling, single point]"}
{"smiles": "O=c1[nH]nc(CNc2ccc(O)cc2)c2ccccc12", "Potency": "inconclusive: 4.61 µM [falling, partial curve]"}
{"smiles": "CC(=C\\C(=O)O)/C(=C/c1ccc(C)o1)C(=O)O", "Potency": "inactive"}
{"smiles": "O=C(Nc1ccccc1C(=O)Nc1nnc(C(F)(F)F)s1)c1ccccc1Cl", "Potency": "active: 6.51 µM"}
{"smiles": "NS(=O)(=O)c1ccc2c(c1)C(=NO)c1cc(S(N)(=O)=O)ccc1-2", "Potency": "inactive"}
{"smiles": "S=C(NCc1ccco1)Nc1cccc(Cl)c1Cl", "Potency": "inactive"}
{"smiles": "COc1ccc(OCc2cc(C(=O)NCCN3CCCC(O)C3)no2)c(Cl)c1", "note": "(centres undefined)", "Potency": "inactive"}
{"smiles": "O=C(NCC(c1ccco1)N1CCCCC1)c1cccc(S(=O)(=O)Nc2ccc(F)cc2)c1", "note": "(centres undefined)", "Potency": "inconclusive: 32.6 µM [falling, partial curve, poor fit]"}
{"smiles": "Oc1ccccc1C1CC(c2cccs2)=NC(c2ccc(Cl)cc2)N1", "note": "(centres undefined)", "Potency": "inactive"}
{"smiles": "Cn1c(CO)cnc1SCC(=O)c1ccc(Cl)cc1", "Potency": "inconclusive: 16.4 µM [activator, single point]"}
{"smiles": "Cc1cc(SCC(=O)N/N=C/c2ccc(O)cc2O)nc2ccccc12", "Potency": "inactive"}
{"smiles": "COc1ccc(OC)c(NC(=O)c2ccc(-c3cccs3)cc2)c1", "Potency": "inconclusive: 32.6 µM [activator, partial curve, poor fit]"}
{"smiles": "O=C(NN=Cc1ccc2c(c1)OCO2)NN=Cc1ccc2c(c1)OCO2", "Potency": "inconclusive: 20.6 µM [activator, single point]"}
{"smiles": "O=C(Nc1nc2c(s1)CCCC2)c1cccs1", "Potency": "inconclusive: 0.366 µM [activator, full curve, poor fit]"}
{"smiles": "CCCC(C(=O)NC1CCCC1)N(C(=O)c1snc(C(N)=O)c1N)c1ccc(OCC)cc1", "note": "(centres undefined)", "Potency": "inconclusive: 16.4 µM [falling, partial curve, poor fit]"}
{"smiles": "C#CCOCCOCCOCCNc1nc(N2CCN(C(=O)CCCCCCCCCCNC(=O)Cn3cc(CCCCCN)nn3)CC2)nc(N2CCN(C(=O)CCCCCCCCCCNC(=O)[C@H](CO)n3cc(CCCCCN)nn3)CC2)n1", "Potency": "inactive"}
{"smiles": "COC(=O)C1=C(C)N(Cc2ccccc2)C(=O)N[C@H]1c1ccc(Br)cc1", "Potency": "inactive"}
{"smiles": "Cc1cccc(OCc2nnc(SCc3nc4cc(C(F)(F)F)ccc4c(=O)[nH]3)o2)c1", "Potency": "inconclusive: 29.1 µM [falling, single point]"}
{"smiles": "CCOC(=O)c1[nH]c2ccc(OC)cc2c1NC(=O)OC", "Potency": "inactive"}
{"smiles": "Cc1c(P(=S)(c2ccccc2)c2ccccc2)c2ccccc2n1C(=O)NCc1ccc(F)cc1", "Potency": "inconclusive: 25.9 µM [falling, partial curve, poor fit]"}
{"smiles": "COc1cc(-c2nnc(CSc3nnc(Nc4ccc(Oc5ccccc5)cc4)s3)o2)cc(OC)c1OC", "Potency": "inactive"}
{"smiles": "CC(C)C(=O)N1c2nc(C(C)C)nn2C2(CCCCC2)[C@@H]2CCCC[C@@H]21", "Potency": "inactive"}
{"smiles": "COc1ccc([C@H]2CC(=O)C=C(c3ccnc4ccc(Cl)cc34)C2)cc1", "Potency": "active: 7.31 µM"}
